Results: PubChem BioAssay AID624297 (National Center for Advancing Translational Sciences (NCATS), 2012)
Screen size: about 340,000 compounds; about 6,200 (1.8%) were called active. Inconclusive means that the source gave no clear call. Such entries were picked first, then a sample of the others. Calls follow the shape of the dose curve; as a rule, active = well fitted activation curve with a large enough effect; inconclusive = small, poorly fitted or top-dose-only effect; inactive = no such curve, though single readings can be large or run the other way. Where the call is inconclusive, the potency comes from a doubtful curve fit.
Potency is read from the fitted curve at half-maximal effect.

Assay: A quantitative high throughput screen for small molecules that induce DNA re-replication in SW480 colon adenocarcinoma cells. Also: nearly all actives have a fitted effect of over 55% in size. As to re-replication activation: % of control where 0% means no effect.
Conditions: Hoechst DNA content imaging, 48 h; re-replication activation: at 46.1 µM (top of the series) unless noted
Method in brief: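 250 cells/well; 23 nL cpd via pin tool; 48 hr, 37 C, 5% CO2; Hoechst 40 min; imager read of total nuclear intensity, ex 405/em 500-530 nm.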
For `Cc1c(CN2CCC(C(=O)Nc3cccc(-c4cccc(Cl)c4)c3)CC2)cnn1C`, the “re-replication activation” value was inactive: 5.32%. For `COc1cccc(C(=O)C2CCCN(Cc3cccn3-c3ccccn3)C2)c1` (centres undefined), the “re-replication activation” value was inactive: 5.37%. In the case of `COc1ccc(-c2oc3ncnc(NCCCN(C)C)c3c2-c2ccc(OC)cc2)cc1`, the Potency is reported as inconclusive: 29.1 µM [activator, single point]. For `CC(NCc1ccc(OCc2ccc(Cl)cc2)cc1)C(O)c1ccccc1` (centres undefined), the Potency was inconclusive: 29.1 µM [activator, single point]. For `CC1CCN(C(=O)c2[nH]cnc2C(=O)Nc2nccs2)CC1`, the re-replication activation was inactive: -16.5% [at 9.22 µM]. With `CCc1ccc2oc(-c3cc(N)ccc3O)nc2c1` the “re-replication activation” value was inactive: 18.3%. For `O=C(NCC(c1cccs1)N1CCOCC1)c1cc(Cl)ccc1[N+](=O)[O-]` (centres undefined), the Potency was inconclusive: 6.51 µM [activator, partial curve, poor fit]. In the case of `O=S(=O)(Nc1ccc(S(=O)(=O)Nc2nccs2)cc1)c1ccc2c(c1)OCCO2`, the Potency is reported as inconclusive: 18.4 µM [activator, single point]. With `COc1cccc(-c2cc(=O)c3cc(NC(=O)c4ccc(Cl)cc4)ccc3[nH]2)c1` the Potency was inconclusive: 20.6 µM [activator, partial curve, poor fit]. In the case of `Cn1c(CCn2ccccc2=O)nc2cc(NC(=O)COc3ccccc3)ccc21`, the Potency is reported as inconclusive: 6.51 µM [activator, partial curve, poor fit]. For `CC(=O)NC(=S)Nc1cc(C(F)(F)F)ccc1N1CCOCC1`, the “re-replication activation” value was inactive: 2.28%. In the case of `COc1ccccc1C(=O)OCc1c(-c2ccccc2)ncc2ccccc12`, the Potency is reported as inconclusive: 8.2 µM [activator, partial curve, poor fit]. With `Cc1nn(-c2ccccc2)c(Cl)c1/C=C(\C#N)C(=O)NC(C)C` the Potency was inconclusive: 29.1 µM [activator, single point]. For `CCc1nnc(NC(=O)C2(C)COC(c3ccc(OC)cc3)OC2)s1` (centres undefined), the “re-replication activation” value was inactive: -3.23%. With `O=C(N/N=C/c1cc([N+](=O)[O-])ccc1O)c1cc(-c2ccccc2)nc2ccccc12` the Potency was inconclusive: 7.31 µM [activator, partial curve, poor fit]. In the case of `CN(C)C1(CNC(=O)C2CCN(S(=O)(=O)c3cc(Cl)ccc3Cl)CC2)CCCCC1`, the Potency is reported as inconclusive: 29.1 µM [activator, single point]. For `CCN(CC)c1ccc(C(=O)OCC(=O)Nc2ccccc2-c2ccccc2)cc1`, the Potency was inconclusive: 32.6 µM [activator, partial curve, poor fit]. With `CCOC(=O)c1c(NC(=O)C2=C(C)NC(=S)NC2c2ccc(F)cc2F)sc(C)c1C` (centres undefined) the Potency was inconclusive: 2.06 µM [activator, full curve, poor fit]. With `Oc1ccc(N2CCN(CC(O)c3ccccc3)CC2)cc1` (centres undefined) the Potency was inconclusive: 29.1 µM [activator, partial curve, poor fit]. With `CC(=O)OCC1CCCC2=C(C)C(=O)CCC21COC(C)=O` (centres undefined) the “re-replication activation” value was inactive: -4.27%. For `CN(C)S(=O)(=O)NCCNc1ccc(C(F)(F)F)cc1[N+](=O)[O-]`, the Potency was inconclusive: 23.1 µM [activator, partial curve, poor fit]. With `Cc1nc(=O)c(-c2ccccc2)c(C)n1-c1ccc(Br)cc1` the re-replication activation was inconclusive: 18.7% [activator]. In the case of `CN(C)CCCN(C(=O)CCS(=O)(=O)c1ccccc1)c1nc2cc3c(cc2s1)OCO3`, the Potency is reported as inconclusive: 6.51 µM [activator, single point]. With `CCOc1nc(-c2ccccc2)ccc1-c1noc(COC)n1` the Potency was inconclusive: 29.1 µM [activator, partial curve, poor fit]. In the case of `CCC1Nc2ncnc(N3CCN(c4ccccc4)CC3)c2N(Cc2ccc(Br)cc2)C1=O` (centres undefined), the Potency is reported as inconclusive: 29.1 µM [activator, single point]. With `CC(C)(C)OC(=O)NCCc1nnc(S(=O)(=O)Cc2ccc(Cl)cc2Cl)o1` the Potency was inconclusive: 29.1 µM [activator, single point]. With `S=C(NCCCN1CCOCC1)N1CCOCC1` the Potency was inconclusive: 3.66 µM [activator, full curve, poor fit]. With `CCOC(=O)c1c2ccccc2[n+]([O-])n1[C@@H](C)C(N)=O` the “re-replication activation” value was inactive: -6.45%. In the case of `CCOC(=O)[C@H]1[C@H]2COc3ccc(Br)cc3[C@@H]2N2C(=O)[C@H](C)NC(=O)[C@@]12C`, the “re-replication activation” value is reported as inactive: -12.5%. With `Cc1nc(C)c(C(=O)N/N=C/c2c[nH]c3ccccc23)s1` the Potency was inconclusive: 11.2 µM [activator, single point]. For `Cc1ccc(NC(=O)COC(=O)/C=C/c2ccccc2)cc1S(=O)(=O)N1CCOCC1`, the “re-replication activation” value was inactive: -3.43%. With `CC1CCc2cc(F)ccc2N1S(=O)(=O)c1ccc(Cl)nc1` (centres undefined) the Potency was inconclusive: 29.1 µM [activator, single point]. For `Cc1ccn(CC(=O)NC2CCCN(Cc3ccc(CC(C)C)cc3)C2)n1` (centres undefined), the Potency was inconclusive: 29.1 µM [activator, single point]. For `O=C(/C=C(/c1ccc(Cl)cc1)n1cncn1)c1ccccc1`, the Potency was inconclusive: 20.6 µM [activator, partial curve, poor fit]. In the case of `CC(C)NC(=O)CS(=O)(=O)c1ccccc1`, the “re-replication activation” value is reported as inactive: 0.0788%. With `CCOC(=O)C1=CN(CC)S(=O)(=O)NC1CC` (centres undefined) the “re-replication activation” value was inactive: -42.9%. In the case of `CCN(CC)CCCNC(=O)c1ccc2c(SCC(=O)O)c3c(nc2c1)CCC3`, the “re-replication activation” value is reported as inactive: 0.644%. In the case of `CCCSc1ccc(-c2nn(-c3ccccc3)cc2/C=C(/C#N)C(=O)NCCCOC)cc1`, the Potency is reported as active: 4.11 µM. For `N#C/C(=C\c1c(Oc2ccccc2Cl)nc2ccccn2c1=O)C(=O)NC1CCS(=O)(=O)C1` (centres undefined), the Potency was inconclusive: 29.1 µM [activator, single point]. For `CCCC(NS(=O)(=O)c1ccc(-c2ccc(=O)[nH]n2)s1)c1cccs1` (centres undefined), the Potency was inconclusive: 2.82 µM [activator, single point]. For `Cc1cc(C(=O)Nc2nnc(C3CCCCC3)s2)cs1`, the Potency was inconclusive: 16.4 µM [activator, single point]. In the case of `N#Cc1ccc(C(=O)NNC(=O)c2ccncc2)cc1`, the Potency is reported as inconclusive: 5.8 µM [activator, partial curve, poor fit]. For `COc1ccc(C(=O)N2CCN(c3ccccc3)CC2)cc1S(=O)(=O)N1CCCC1`, the Potency was inconclusive: 29.1 µM [activator, single point]. For `O=C(NNC(=O)c1cc2cc3ccccc3nc2s1)c1cccc(C(F)(F)F)c1`, the “re-replication activation” value was inactive: 1.17%. In the case of `COc1ccccc1C1CCN(C(=O)c2ccc(Cl)cc2)CC1`, the “re-replication activation” value is reported as inactive: -4.52%. For `CCC(=O)NCCNc1nc2cc(C)cc(C)c2cc1C#N`, the “re-replication activation” value was inactive: 0.156%. In the case of `Cc1ccc2nc3c(cc(S(=O)(=O)c4ccccc4)c(=N)n3Cc3ccco3)c(=O)n2c1`, the Potency is reported as inconclusive: 0.206 µM [activator, partial curve, poor fit]. With `Cc1nn(-c2ccccc2)c(Cl)c1/C=N/NC(=O)OC(C)(C)C` the “re-replication activation” value was inactive: -11.6%. In the case of `CCCc1c(C(=O)N/N=C/c2ccc(OCc3ccccc3)c(OC)c2)nnn1-c1nonc1N`, the Potency is reported as inconclusive: 25.9 µM [activator, single point]. With `CCOc1ccc2nc(NCCNS(=O)(=O)c3ccccc3)c(C#N)cc2c1` the Potency was active: 18.4 µM. For `O=c1[nH]c(CS(=O)(=O)c2ccccc2)nc2ccccc12`, the “re-replication activation” value was inactive: -2.07%. For `CC(C)(C)c1ccc(S(=O)(=O)N2CCN(c3ncccn3)CC2)cc1`, the Potency was inconclusive: 0.0082 µM [activator, full curve, poor fit]. For `CCN1CCC(CNCc2cn(-c3ccc(OC)cc3)nc2-c2ccccc2Cl)C1` (centres undefined), the Potency was inconclusive: 16.4 µM [activator, single point]. For `CN1CCc2cccc3c2[C@@H]1Cc1ccc(O)c(O)c1-3`, the Potency was active: 3.66 µM. For `N#C/C(=C/C=C/c1ccccc1)C(=O)Nc1ccccc1`, the Potency was inconclusive: 20.6 µM [activator, single point]. In the case of `CC(c1ccon1)N(C)C(=O)CCc1nnc(Cc2ccc(-c3ccccc3)cc2)o1` (centres undefined), the Potency is reported as inconclusive: 18.4 µM [activator, single point]. For `CCN(CC(=O)Nc1ccc2c(c1)OCCO2)C(=O)c1ccc(Cl)cc1Cl`, the “re-replication activation” value was inactive: -0.145%. With `O=C(N/N=C/c1ccccn1)c1cc(-c2ccc3ccccc3c2)n[nH]1` the Potency was inconclusive: 10.3 µM [activator, partial curve, poor fit]. In the case of `CC(C)(C)NC(=O)CN(CC1CCCO1)C(=O)CNS(=O)(=O)c1ccc(F)cc1` (centres undefined), the Potency is reported as inconclusive: 1.12 µM [activator, full curve, poor fit]. For `CC/C(=N\NC(=O)c1cc(C)nc2ccccc12)c1ccc(C)s1`, the Potency was inconclusive: 29.1 µM [activator, single point]. With `c1cncc(-c2nc(NCCCn3ccnc3)c3ccccc3n2)c1` the Potency was inconclusive: 29.1 µM [activator, single point]. With `COc1ccc(CC(=O)N(CC2CCCO2)c2nc3ccccc3s2)cc1` (centres undefined) the “re-replication activation” value was inactive: 0.536%. For `COc1ccc(CNc2ccc([N+](=O)[O-])cc2C)cc1`, the “re-replication activation” value was inactive: -9.47%. In the case of `COc1ccc(CN2C(=O)C(C)Nc3ncnc(N4CCOCC4)c32)cc1` (centres undefined), the Potency is reported as inconclusive: 18.4 µM [activator, single point]. With `O=c1c([N+](=O)[O-])cccn1Cc1cccc(Br)c1` the “re-replication activation” value was inactive: -6.04%. In the case of `O=S(=O)(Nc1ccc(O)c2ccccc12)c1ccc(F)cc1`, the Potency is reported as inconclusive: 20.6 µM [activator, single point]. With `CNc1nc(Nc2ccc([N+](=O)[O-])cc2)nc(OCC(F)(F)F)n1` the “re-replication activation” value was inactive: 21.4%. In the case of `CC1CCCN(c2ccc(C(=O)NCc3ccccc3)cn2)C1` (centres undefined), the Potency is reported as inconclusive: 14.6 µM [activator, single point]. In the case of `Cc1ccc(-c2csc(N3CCN(CCCn4c(-c5ccncc5)nc5ccccc54)CC3)n2)cc1`, the Potency is reported as inconclusive: 32.6 µM [activator, partial curve, poor fit].
